Experimental data from PubChem BioAssay AID1919000 (Molecular Pharmacology Branch, DTP, NCI, 2023).
Values joined by “and” are separate entries in the source; they are usually repeats but may differ in a detail not shown here. Equal entries are not always repeated. This continues a long series; more values of the same kind are listed elsewhere.

Tested on: 653999-131-R-J2-PDC complex spheroids, growth % test/control
Assay: Anticancer human tumor 653999-131-R-J2-PDC patient-derived lung adenocarcinoma cell line growth inhibition [AhR]
Conditions: active compounds read low; active means viability on the fitted dose curve at most 10% of control; inactive means the rest
Text: Multicellular complex tumor spheroid response to aryl hydrocarbon receptor antagonists in combination with a variety of drugs and investigational agents in selected tumor cell lines
The current study was undertaken to assess response to aryl hydrocarbon receptor antagonists in combination with standard-of-care drugs and investigational agents in solid tumor complex spheroid models. Complex spheroids include a stromal component modeled by human endothelial cells (HUVEC) and fibroblasts modeled by human mesenchymal stem cells (MSCs). The concentration ranges selected for each drug and investigational agent were based upon clinically achievable concentrations if the clinical Cmax of the agent was known.
Compounds. The drugs and investigational agents: BAY 2416964 (NSC825713), GNF351 (NSC835774), CH-223191 (NSC835775), CPI-455 (NSC825282), aza-TdCyd (NSC777586), decitabine (NSC127716), belinostat (NSC758774), entinostat (NSC756642), pevonedistat (NSC761192), tazemetostat (NSC777109), talazoparib (NSC765396), olaparib (NSC753686), selinexor (NSC780203), nedisertib (M3814, NSC802822), bortezomib (NSC756655), venetoclax (NSC766270), doxorubicin (NSC123127), elimusertib (BAY189344, NSC800525), ceralasertib (AZD6738, NSC777638), TAK-243 (NSC785004), alisertib (NSC759677), etoposide (NSC141540), topotecan (NSC609699), eribulin (NSC707389), gemcitabine (NSC613327), carboplatin (NSC241240), cisplatin (NSC119875), and SN-38 (NSC673596) were obtained from the National Cancer Institute (NCI) Developmental Therapeutics Program Chemical Repository (32). The FDA-approved anticancer drug set is available from the Developmental Therapeutics Program at https://dtp.cancer.gov/organization/dscb/obtaining/available plates.htm. […] The stock solutions were prepared in dimethyl sulfoxide (DMSO, Sigma-Aldrich, St. Louis, MO, cat. D2650), except for the platinum compounds which were prepared in saline (Quality Biological, Gaithersburg, MD, cat. 114-055-101), at 800-fold the tested concentration and stored at -70 degrees C prior to their use. All drugs and investigational agents were tested over a range starting from a high concentration at or near the clinical Cmax and decreasing in half-log increments. If the clinical Cmax for an agent had not been determined, the highest concentration tested was 10 microM (Table 1).
Cell Culture. All cells were maintained in an incubator at 37 degrees C and 5% CO2 with 95% humidity. The PDC lines were cultured according to standard operating procedures established by the NCI PDMR (https://pdmr.cancer.gov). Briefly, all PDCs were thawed and cultured in Matrigel-coated flasks prepared with a working solution of 1X Ham's F-12 nutrient mix, without supplementation (Invitrogen, Waltham, MA, cat. 11765054), 100 U/mL penicillin-streptomycin (Invitrogen, cat. 15140122), and 2.5% Matrigel (Corning Inc., Corning, NY, cat. 354248) for the first three passages. All PDCs were cultured in complete DMEM/F-12 media containing advanced DMEM/F-12 (Invitrogen, cat. 12634028), 4.9% defined fetal bovine serum, heat inactivated (HyClone Laboratories Inc., Logan, UT, cat. SH30070.03HI), 389 ng/mL hydrocortisone (Sigma-Aldrich, cat. H4001), 9.7 ng/mL human EGF recombinant protein (Invitrogen, cat. PHG0313), 23.4 microg/mL adenine (Sigma-Aldrich, cat. A2786), 97.3 U/mL penicillin-streptomycin (Invitrogen, cat. 15140122), 1.9 mM L-glutamine (Invitrogen, cat. 25030081), and 9.7 microM Y-27632 dihydrochloride (Tocris Bioscience, Bristol, United Kingdom, cat. 1254). The PDCs were cultured in complete DMEM/F12 media without 10 microM Y-27632 dihydrochloride for at least two passages prior to the screen. The established cell lines NCI-H1341 and […] were cultured in DMEM/F-12, HEPES (Invitrogen, cat. 11330032), 5% defined fetal bovine serum (HyClone Laboratories Inc., cat. SH30070.03), ITS premix universal culture supplement [insulin (5 microg/mL), transferrin (5 microg/mL), and selenious acid (5 ng/mL)] […]

Measured: viability, T/C
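Further: spheroids exposed to agents for seven days.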

Cc1ccccc1N=Nc1ccc(NC(=O)c2ccnn2C)c(C)c1
inactive: compound 0.1 µM 106% [middle of 4 runs] | compound 1 µM 86.6% and 98.6% and 91.2% | compound 3.16 µM 96% [middle of 4 runs] | compound 10 µM 106% [middle of 4 runs]

CC(CO)NC(=O)c1cc(-c2ccc(Cl)cc2)nn(-c2cnn(C)c2)c1=O (centres undefined)
inactive: compound 0.1 µM 90.3% and 85.5% and 93.7% | compound 0.316 µM 94.4% [middle of 4 runs] | compound 1 µM 97.1% [middle of 4 runs] | compound 3.16 µM 89.4% [middle of 5 runs] | compound 10 µM 90.6% [middle of 5 runs]

Cc1cncc(-c2nc(NCCc3c[nH]c4ccccc34)c3ncn(C(C)C)c3n2)c1
inactive: compound 0.1 µM 96.8% [middle of 4 runs] | compound 0.316 µM 109% [middle of 4 runs] | compound 1 µM 113% [middle of 4 runs] | compound 3.16 µM 98.6% and 129% and 98.5% | compound 10 µM 41.7% and 57.6% and 51.4%
